Data as given in PubChem BioAssay AID1508588 (Peter MacCallum Cancer Centre, 2020).

- Aim: 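Which gene losses make BRAF-mutant melanoma cells more responsive to vemurafenib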 (primary screen)
- Cells: human WM266.4 melanoma cells (BRAF V600 mutant)
- Knock-down reagent: siRNA pool against human genes, 40 nM
- Duration: 96 h from transfection to read-out
- Conditions: vemurafenib 300 nM (about IC25), added 48 h after transfection, for 48 h; comparison arm got DMSO vehicle only
- Measured: 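Ratios to non-targeting siRNA for cell gain, counted as DAPI nuclei after minus before drug and averaged over two replicates, and for absorbance-read medium lactate per cell; both binned into fold-change classes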
- Direction: cell gain with vemurafenib: higher = more cell gain than with non-targeting siRNA; lactate per cell with vemurafenib: higher = more lactate made per cell
- Call rule: 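a knock-down counts as enhancing when its fold-change classes with vehicle and with vemurafenib, taken together, show a stronger drug effect on cell gain or lactate per cell; exact class pairs not stated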
- Meaning of the calls: active = enhances vemurafenib effect; inactive = no enhancement seen
Shown is one part, drawn at random, of about 18,000 deposited reagents. 790 of all reagents (4.4%) count as active. 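Calls rest on a combination of fold-change classes in drug and vehicle arms, not all shown here.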 A number with no mark means an inactive call. A reagent listed more than once was tested more than once; the source does not tell the runs apart.

no.	Target gene	cell gain with vemurafenib	lactate per cell with vemurafenib
1	TWNK (GeneID 56652)	1.14	0.84
2	JAM2 (GeneID 58494)	0.72	0.66
3	CCDC89 (GeneID 220388)	0.63	1
4	STEAP3 (GeneID 55240)	1.1	0.7
5	CMKLR1 (GeneID 1240)	0.48	1.06
6	SMIM3 (GeneID 85027)	0.71	1.04
7	SMIM3 (GeneID 85027)	0.73	1.25
8	SAMD9 (GeneID 54809)	0.34	0.48
9	HTATIP2 (GeneID 10553)	0.49	0.6
10	DYNLT5 (GeneID 200132)	0.42	0.9
11	PTHLH (GeneID 5744)	0.34	1.02
12	PDHA1 (GeneID 5160)	0.61	-0.34
13	HADHA (GeneID 3030)	1.17	0.64
14	HMGN2P46 (GeneID 283651)	0.46	0.96
15	ZNF585B (GeneID 92285)	-0.05 (active)	-0.31
16	C14orf93 (GeneID 60686)	0.51	1.21
17	PGM5 (GeneID 5239)	0.64	0.56
18	FBXO7 (GeneID 25793)	0.08	0.87
19	TNFSF4 (GeneID 7292)	0.35	1.03
20	SNAP91 (GeneID 9892)	0.86	1.03
21	PEDS1-UBE2V1 (GeneID 387522)	0.67	1.3
22	SYMPK (GeneID 8189)	0.8	0.6
23	LRRC20 (GeneID 55222)	0.46	2.2
24	DSG2 (GeneID 1829)	1	1.04
25	LINC00303 (GeneID 284573)	0.28	0.85
26	TCP11 (GeneID 6954)	0.18 (active)	0.45
27	TBC1D31 (GeneID 93594)	0.7	0.36
28	NAB1 (GeneID 4664)	0.5	1.05
29	YPEL5 (GeneID 51646)	0.52	0.5
30	FUT8 (GeneID 2530)	0.8	0.8
31	PCDHB7 (GeneID 56129)	0.42	1.12
32	C4A (GeneID 720)	0.45	1.24
33	PRR14 (GeneID 78994)	0.25	2.06
34	TM9SF4 (GeneID 9777)	0.76	0.78
35	LRRC73 (GeneID 221424)	0.38	1.36
36	STIP1 (GeneID 10963)	0.91	1.29
37	ADAMTS19 (GeneID 171019)	0.56	0.86
38	ACTG2 (GeneID 72)	0.43	0.94
39	SRP68 (GeneID 6730)	0.49	1.5
40	STK32A (GeneID 202374)	0.93	0.94
41	TRPC6 (GeneID 7225)	0.43	0.48
42	QRICH2 (GeneID 84074)	0.47	1.23
43	SUMO2 (GeneID 6613)	0.69	0.74
44	PRMT3 (GeneID 10196)	0.92	0.5
45	RFFL (GeneID 117584)	0.97	0.82
46	NMNAT1 (GeneID 64802)	0.22	0.99
47	LAMC2 (GeneID 3918)	0.14	2.04
48	INPP5J (GeneID 27124)	0.92	0.4
49	CR2 (GeneID 1380)	0.69	0.66
50	CDH9 (GeneID 1007)	0.39	1.24
51	ZNF335 (GeneID 63925)	0.58	0.56
52	SOX11 (GeneID 6664)	0.38	1.15
53	SLC7A9 (GeneID 11136)	0.59	1.31
54	CEP192 (GeneID 55125)	0.24 (active)	0.45
55	CAPN15 (GeneID 6650)	0.61	0.76
56	METRN (GeneID 79006)	0.93	0.83
57	MLIP (GeneID 90523)	0.21	1.62

A portion from the list above, as a working copy:
no.	Target gene	cell gain with vemurafenib	lactate per cell with vemurafenib
22	SYMPK (GeneID 8189)	0.8	0.6
23	LRRC20 (GeneID 55222)	0.46	2.2
24	DSG2 (GeneID 1829)	1	1.04
25	LINC00303 (GeneID 284573)	0.28	0.85
